Measurements published in doi:10.1101/2021.07.07.451444.
Where two headings read alike, the source gives them in different places. These are yes or no findings as the source states them, for the method shown. Binding seen in cells or lysates may run through a third protein. Here binding means that the protein was enriched with, or labelled near, the bait; the list need not be complete.

By UniProt entry, the sequences of proteins in these tests, tags left out.
UniProt Q9HAU5: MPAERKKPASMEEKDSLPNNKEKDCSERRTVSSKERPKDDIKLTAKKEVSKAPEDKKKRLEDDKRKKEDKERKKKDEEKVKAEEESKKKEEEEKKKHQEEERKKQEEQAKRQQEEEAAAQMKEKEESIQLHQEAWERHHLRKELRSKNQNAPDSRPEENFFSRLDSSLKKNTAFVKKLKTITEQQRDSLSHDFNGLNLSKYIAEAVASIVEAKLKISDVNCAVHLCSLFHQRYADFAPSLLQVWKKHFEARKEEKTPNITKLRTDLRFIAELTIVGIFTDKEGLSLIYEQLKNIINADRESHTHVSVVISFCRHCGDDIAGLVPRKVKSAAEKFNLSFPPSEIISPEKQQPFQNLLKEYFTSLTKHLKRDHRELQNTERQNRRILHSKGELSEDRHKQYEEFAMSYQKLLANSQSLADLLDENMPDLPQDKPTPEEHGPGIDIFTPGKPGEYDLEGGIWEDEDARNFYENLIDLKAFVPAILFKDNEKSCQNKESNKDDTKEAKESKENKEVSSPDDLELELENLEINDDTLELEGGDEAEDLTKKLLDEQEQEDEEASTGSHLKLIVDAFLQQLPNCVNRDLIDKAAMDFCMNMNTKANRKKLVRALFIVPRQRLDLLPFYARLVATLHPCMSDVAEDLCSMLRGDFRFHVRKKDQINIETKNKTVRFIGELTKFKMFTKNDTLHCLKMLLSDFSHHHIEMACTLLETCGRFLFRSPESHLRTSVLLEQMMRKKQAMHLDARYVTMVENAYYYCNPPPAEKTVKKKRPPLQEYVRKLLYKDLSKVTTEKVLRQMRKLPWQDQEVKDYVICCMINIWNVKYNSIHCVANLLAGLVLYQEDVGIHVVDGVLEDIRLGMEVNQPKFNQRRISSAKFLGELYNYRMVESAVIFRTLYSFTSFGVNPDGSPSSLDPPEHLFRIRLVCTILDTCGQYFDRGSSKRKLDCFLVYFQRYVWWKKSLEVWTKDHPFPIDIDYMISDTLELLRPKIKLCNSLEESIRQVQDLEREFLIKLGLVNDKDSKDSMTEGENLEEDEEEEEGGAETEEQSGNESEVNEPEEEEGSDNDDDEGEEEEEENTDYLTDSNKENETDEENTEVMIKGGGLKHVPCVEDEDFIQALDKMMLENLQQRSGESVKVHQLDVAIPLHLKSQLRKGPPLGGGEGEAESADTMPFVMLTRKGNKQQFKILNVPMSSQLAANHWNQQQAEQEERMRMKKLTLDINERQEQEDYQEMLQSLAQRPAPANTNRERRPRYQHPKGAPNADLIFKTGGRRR

B1: UPF3A (protein, UniProt Q9H1J1-1 1-476)
chain: MRSEKEGAGGLRAAVAARGPSGREKLSALEVQFHRDSQQQEAETPPTSSSGCGGGAGKPREEKRTALSKVVIRRLPPGLTKEQLEEQLRPLPAHDYFEFFAADLSLYPHLYSRAYINFRNPDDILLFRDRFDGYIFLDSKGLEYPAVVEFAPFQKIAKKKLRKKDAKTGSIEDDPEYKKFLETYCVEEEKTSANPETLLGEMEAKTRELIARRTTPLLEYIKNRKLEKQRIREEKREERRRRELEKKRLREEEKRRRREEERCKKKETDKQKKIAEKEVRIKLLKKPEKGEEPTTEKPKERGEEIDTGGGKQESCAPGAVVKARPMEGSLEEPQETSHSGSDKEHRDVERSQEQESEAQRYHVDDGRRHRAHHEPERLSRRSEDEQRWGKGPGQDRGKKGSQDSGAPGEAMERLGRAQRCDDSPAPRKERLANKDRPALQLYDPGARFRARECGGNRRICKAEGSGTGPEKREEAE
B2: UPF3B (protein, UniProt Q9BZI7-2 1-470)
chain: MKEEKEHRPKEKRVTLLTPAGATGSGGGTSGDSSKGEDKQDRNKEKKEALSKVVIRRLPPTLTKEQLQEHLQPMPEHDYFEFFSNDTSLYPHMYARAYINFKNQEDIILFRDRFDGYVFLDNKGQEYPAIVEFAPFQKAAKKKTKKRDTKVGTIDDDPEYRKFLESYATDNEKMTSTPETLLEEIEAKNRELIAKKTTPLLSFLKNKQRMREEKREERRRREIERKRQREEERRKWKEEEKRKRKDIEKLKKIDRIPERDKLKDEPKIKLLKKPEKGDEKELDKREKAKKLDKENLSDERASGQSCTLPKRSDSELKDEKPKRPEDESGRDYREREREYERDQERILRERERLKRQEEERRRQKERYEKEKTFKRKEEEMKKEKDTLRDKGKKAESTESIGSSEKTEKKEEVVKRDRIRNKDRPAMQLYQPGARSRNRLCPPDDSTKSGDSAAERKQESGISHRKEGGEE

Tests used:
FLAG-tagged UPF2 [1] = molecular target: FLAG-tagged UPF2 (UniProt Q9HAU5); assay: affinity purification with mass spectrometry
FLAG-tagged UPF2 [2] = molecular target: FLAG-tagged UPF2 (UniProt Q9HAU5); assay: affinity purification with mass spectrometry; remark: listed apart in the source

Row | Binder | binding (FLAG-tagged UPF2 [1]) | binding (FLAG-tagged UPF2 [2])
1 | B1 | binds | binds
2 | B2 |  | binds
